The values below come from paper doi:10.1101/2023.08.17.553795.

Chains of the proteins cited; added tags and fusions are not shown.
UniProt P22366, whole entry: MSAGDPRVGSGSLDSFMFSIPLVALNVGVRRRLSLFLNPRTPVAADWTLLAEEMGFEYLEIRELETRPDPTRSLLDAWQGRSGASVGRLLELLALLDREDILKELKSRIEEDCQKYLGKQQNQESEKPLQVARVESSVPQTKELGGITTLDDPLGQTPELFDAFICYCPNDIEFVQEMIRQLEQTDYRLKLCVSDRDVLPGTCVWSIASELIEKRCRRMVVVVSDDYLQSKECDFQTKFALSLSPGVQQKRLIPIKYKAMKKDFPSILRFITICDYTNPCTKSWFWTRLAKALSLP
UniProt P56477, whole entry: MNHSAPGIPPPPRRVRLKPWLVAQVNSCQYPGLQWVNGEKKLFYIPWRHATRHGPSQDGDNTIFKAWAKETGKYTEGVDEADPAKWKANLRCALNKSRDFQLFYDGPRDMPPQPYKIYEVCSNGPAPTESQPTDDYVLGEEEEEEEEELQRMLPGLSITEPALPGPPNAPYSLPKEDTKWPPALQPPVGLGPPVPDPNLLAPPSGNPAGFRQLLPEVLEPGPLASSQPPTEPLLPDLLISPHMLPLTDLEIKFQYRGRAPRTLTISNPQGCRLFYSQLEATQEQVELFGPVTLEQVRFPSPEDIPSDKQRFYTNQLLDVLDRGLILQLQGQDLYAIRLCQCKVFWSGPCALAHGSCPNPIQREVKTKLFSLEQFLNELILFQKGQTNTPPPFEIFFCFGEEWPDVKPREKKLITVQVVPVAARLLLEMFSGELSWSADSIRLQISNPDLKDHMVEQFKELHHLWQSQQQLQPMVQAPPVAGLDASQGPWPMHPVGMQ

Results are given in words; binding and its absence hold for the method and conditions named. In cells and extracts the contact can be indirect. Some binding calls cover weakened binding; strength is not graded here.

Holding throughout (assay): co-IP
Experiment [1] concerns the target MyD88 (mouse (endogenous in peritoneal lavage cells)) (UniProt P22366).
Experiment [2] concerns the target interferon regulatory factors 5 (IRF5) (mouse (endogenous in peritoneal lavage cells)) (UniProt P56477).
The target of experiment [3] is T1, interferon regulatory factors 4 (IRF4) (mouse (endogenous in peritoneal lavage cells)) (UniProt Q64287).
T1 sequence: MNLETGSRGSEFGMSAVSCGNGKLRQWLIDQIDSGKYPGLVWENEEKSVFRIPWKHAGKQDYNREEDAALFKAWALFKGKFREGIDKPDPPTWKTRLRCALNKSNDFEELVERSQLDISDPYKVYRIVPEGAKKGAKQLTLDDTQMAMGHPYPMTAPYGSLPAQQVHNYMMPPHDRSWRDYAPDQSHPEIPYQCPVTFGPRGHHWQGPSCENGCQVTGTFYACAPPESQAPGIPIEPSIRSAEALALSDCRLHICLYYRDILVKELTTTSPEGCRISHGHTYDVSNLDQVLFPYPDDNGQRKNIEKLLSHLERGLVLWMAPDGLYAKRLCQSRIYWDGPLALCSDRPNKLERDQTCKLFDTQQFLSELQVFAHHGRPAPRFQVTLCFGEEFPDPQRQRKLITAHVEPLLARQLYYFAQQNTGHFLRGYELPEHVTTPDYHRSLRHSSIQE

In the case of “interferon regulatory factors 5 (IRF5) (from UniProt P56477 1-497)”, the binding result in experiment [1] is given as “binds”.

As to MyD88 (from UniProt P22366 1-296), the binding result in experiment [2] and in experiment [3] was “binds” in each case.
